Test [1] concerns the target IFI16 from BMDM (mouse). Put plainly: GST pull-down from BMDM lysates (FIG. 11a).
Test [2] deals with IFI16 from BMDM (mouse). Description: figure title; GST pull-down from BMDM lysates.

No constants are given. Whether binding was seen depends on the method and setting. Binding seen in cells or lysates may run through a third protein. Binding calls can cover weak binding; strength is not graded here. Sequences can lack the tags named with a protein.

B1: GST-POP3 (other)
chain: MESKYKEILLLTSLDNITDEELDRFKCFLPDEFNIATGKLHTLNSTSSQLDLKRWHGVCSEEDRIFQKLNYMLVAKCLREEQETGICGSPSSARSVSQSRLGLSFHGISGNAC
notes: also called recombinant POP3; immobilized GST-POP3; not shown: glutathione S-transferase (GST) tag encoded by pGEX-4T1
In the case of B1, the binding result in the test with IFI16 from BMDM (mouse) [1] and with IFI16 from BMDM (mouse) [2] was “binds” each time.
